Assay results published in article PMC13419597, “An Acetylation-Primed SUMOylation Switch Controls RORβ Stability through a p300-SIRT1 Regulatory Axis” (Research Square, 2024).
For at least one entry, the source does not settle the construct or the ends of the probe. For some of these results: At least one verdict rests on a figure or table, not on a statement of the authors.

Chains of the proteins cited; added tags and fusions are not shown. A line that says so, or that is headed by a name, gives the form on record, which may keep a tag or linker.
RORβ (non-acetylated) (Homo sapiens), one chain, as listed by the source: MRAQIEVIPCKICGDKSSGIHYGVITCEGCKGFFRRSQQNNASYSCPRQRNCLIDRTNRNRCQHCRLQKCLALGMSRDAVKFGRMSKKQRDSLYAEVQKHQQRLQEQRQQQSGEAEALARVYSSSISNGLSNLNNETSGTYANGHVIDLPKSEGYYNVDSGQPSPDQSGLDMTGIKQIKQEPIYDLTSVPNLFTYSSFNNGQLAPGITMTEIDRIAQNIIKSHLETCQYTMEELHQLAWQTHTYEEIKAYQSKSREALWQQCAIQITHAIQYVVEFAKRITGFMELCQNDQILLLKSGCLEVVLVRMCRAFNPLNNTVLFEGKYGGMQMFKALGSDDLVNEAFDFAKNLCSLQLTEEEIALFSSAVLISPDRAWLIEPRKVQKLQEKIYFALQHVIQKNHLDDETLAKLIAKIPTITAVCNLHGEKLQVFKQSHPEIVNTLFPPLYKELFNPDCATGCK

Key:
[1] = tested on: RORβ (non-acetylated) (Homo sapiens); assay: EMSA; conditions: non-acetylated, EMSA: 25 mM HEPES pH 8.0, 200 mM NaCl, 10 mM MgCl2, 5 mM sodium butyrate, 3.75% glycerol, 0.5 mM DTT, HALT protease inhibitor, 20 min RT, 8% native PAGE at 4 °C, recombinant protein
[2] = tested on: RORβ acetylated in vitro by p300 (Homo sapiens); assay: EMSA; conditions: p300 + acetyl-CoA, no difference from non-acetylated, EMSA: 25 mM HEPES pH 8.0, 200 mM NaCl, 10 mM MgCl2, 5 mM sodium butyrate, 3.75% glycerol, 0.5 mM DTT, HALT protease inhibitor, 20 min RT, 8% native PAGE at 4 °C, recombinant protein

Measured: binding result

ATTTAAAGTGGGTCAGAAAATTTTCTGACCCACTTTAAAT (double strand) [40-bp RORE oligonucleotide]
binds: [1]; RORβ:DNA 4:1 (DNA 0.25 µM) | [1]; RORβ:DNA 8:1 (DNA 0.25 µM) | [2]; RORβ:DNA 4:1 (DNA 0.25 µM) | [2]; RORβ:DNA 8:1 (DNA 0.25 µM)
